Measured values: article PMC5431654
No constants are given. Whether binding was seen depends on the method and setting. In cells and extracts the contact can be indirect. These calls come from enrichment with a bait or labelling near it, and not all partners need be listed.

Chains of the proteins cited; added tags and fusions are not shown. Lines headed by an entry give the natural chain unless they say otherwise; changes in a name come on top. A line that says so, or that is headed by a name, gives the form on record, which may keep a tag or linker. Residues count along the entry.
UniProt P67775: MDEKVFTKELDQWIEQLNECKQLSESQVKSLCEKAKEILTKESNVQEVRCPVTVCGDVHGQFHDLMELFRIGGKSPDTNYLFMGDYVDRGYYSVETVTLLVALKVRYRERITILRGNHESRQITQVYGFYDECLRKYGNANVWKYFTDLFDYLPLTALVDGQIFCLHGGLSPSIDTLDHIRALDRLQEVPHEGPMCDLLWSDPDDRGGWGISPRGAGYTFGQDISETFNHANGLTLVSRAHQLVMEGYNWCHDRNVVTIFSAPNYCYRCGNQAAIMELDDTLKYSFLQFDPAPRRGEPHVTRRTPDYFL
UniProt P52732: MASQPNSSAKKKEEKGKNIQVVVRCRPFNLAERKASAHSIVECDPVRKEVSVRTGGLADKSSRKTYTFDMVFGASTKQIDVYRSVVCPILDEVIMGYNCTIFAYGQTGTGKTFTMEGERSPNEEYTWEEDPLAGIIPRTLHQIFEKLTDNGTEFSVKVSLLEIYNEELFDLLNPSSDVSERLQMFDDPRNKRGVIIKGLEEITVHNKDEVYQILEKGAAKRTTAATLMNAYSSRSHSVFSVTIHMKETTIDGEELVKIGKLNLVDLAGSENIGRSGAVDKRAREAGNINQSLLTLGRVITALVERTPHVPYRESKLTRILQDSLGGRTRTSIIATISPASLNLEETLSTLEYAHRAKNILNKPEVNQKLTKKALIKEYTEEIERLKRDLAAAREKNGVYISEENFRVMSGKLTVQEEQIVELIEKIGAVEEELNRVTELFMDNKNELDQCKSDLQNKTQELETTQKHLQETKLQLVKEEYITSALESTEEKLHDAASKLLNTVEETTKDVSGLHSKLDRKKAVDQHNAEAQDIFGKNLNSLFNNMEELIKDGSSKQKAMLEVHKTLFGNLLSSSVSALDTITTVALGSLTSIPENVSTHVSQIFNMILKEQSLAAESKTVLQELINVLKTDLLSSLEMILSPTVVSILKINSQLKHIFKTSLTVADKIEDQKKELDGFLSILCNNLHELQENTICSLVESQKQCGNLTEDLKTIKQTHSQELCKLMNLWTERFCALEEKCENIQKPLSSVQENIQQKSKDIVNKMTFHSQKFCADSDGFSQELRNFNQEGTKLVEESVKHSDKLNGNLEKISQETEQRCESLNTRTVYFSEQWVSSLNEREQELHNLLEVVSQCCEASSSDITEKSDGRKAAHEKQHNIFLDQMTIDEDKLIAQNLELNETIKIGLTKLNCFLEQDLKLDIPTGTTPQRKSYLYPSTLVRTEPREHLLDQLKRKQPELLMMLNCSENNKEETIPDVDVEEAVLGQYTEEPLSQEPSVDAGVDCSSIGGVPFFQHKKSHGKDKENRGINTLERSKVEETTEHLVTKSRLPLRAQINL
FLAG-tagged EG5 fragment Tail-2 (751~1057aa): residues 751-1056 of P52732
UniProt P63151: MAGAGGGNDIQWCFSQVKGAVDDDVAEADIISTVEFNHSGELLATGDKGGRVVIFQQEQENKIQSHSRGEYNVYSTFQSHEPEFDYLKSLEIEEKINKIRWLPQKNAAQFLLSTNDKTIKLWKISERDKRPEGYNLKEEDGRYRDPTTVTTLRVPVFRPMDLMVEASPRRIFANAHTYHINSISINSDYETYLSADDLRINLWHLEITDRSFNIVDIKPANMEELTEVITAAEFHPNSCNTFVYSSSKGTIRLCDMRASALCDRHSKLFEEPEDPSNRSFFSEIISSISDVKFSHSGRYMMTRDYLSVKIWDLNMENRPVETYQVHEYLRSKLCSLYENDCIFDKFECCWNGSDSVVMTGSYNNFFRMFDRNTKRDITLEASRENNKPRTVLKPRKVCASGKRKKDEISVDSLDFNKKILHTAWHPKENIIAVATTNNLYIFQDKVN

Columns and labels:
[1] = target: FLAG-tagged PP2A/Cα (human) (UniProt P67775); assay: affinity purification with mass spectrometry; HeLa cells overexpressing FLAG-PP2A/Cα, blocked at metaphase with Nocodazole; lysate on anti-FLAG beads, FLAG peptide elution, SDS-PAGE, silver staining, band sequenced by mass spectrometry (Mascot)
[2] = target: FLAG-tagged EG5 fragment Tail-2 (751~1057aa) (human) (UniProt P52732); assay: affinity purification with mass spectrometry; Flag pull-down from HEK293 cells expressing Flag-tagged Tail2; band around 55 kD identified by mass spectroscopy

binding [1] | binding [2] | Substance
binds |  | endogenous EG5 (KIF11) (from UniProt P52732 1-1056)
 | binds | endogenous PP2A/B55α (from UniProt P63151 1-447)
